PubChem BioAssay AID434947 (Broad Institute, 2010)
Screen size: about 2,200 compounds; about 15 (0.7%) were called active.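 The calls were made as follows: active = fitted half-maximal concentration for loss of luminescence signal no more than a set limit of log units above the top tested concentration; inconclusive = flat fit with 30 to 70% signal loss, or invalid fit; inactive = half-maximal concentration above that set limit.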 The list shows a part of the results.

Assay: ADP-Glo luciferase signal interference – biochemical, luminescence, cell-free, homogeneous, artefact control for GSK3beta inhibitor project, dose response (AID 434947);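 also: kinase-free counter screen of ADP-Glo detection reagents for GSK3beta hits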
Details: Cell-free ADP-Glo reagents, 5 uM ADP

| Structure (SMILES) | EC50 |
| --- | --- |
| Cc1cc2c(Nc3ccc(O)cc3)ncnc2s1 | inactive: > 30 µM |
| O=C(Nc1ccc([N+](=O)[O-])cn1)C1CC1 | inactive: > 30 µM |
| COC(=O)c1ccc(CSc2ccc3nnc(-c4ccc(F)cc4)n3n2)o1 | inactive: > 30 µM |
| OC(COc1ccc(OCC(O)CN2CCN(Cc3ccccc3)CC2)cc1)CN1CCN(Cc2ccccc2)CC1 (configuration not stated) | inactive: > 30 µM |
| CC(C)Nc1nc(NC(N)=S)nc(NC(C)C)n1 | inactive: > 30 µM |
| COc1ccc(NC(=O)c2sc(SC)nc2N)cc1 | inactive: > 30 µM |
| O=c1c2ccccc2cnn1-c1nc2ccccc2[nH]1 | active: 25.9 µM |
| N/C(=N\NC(=O)c1ccc(Cl)cc1)c1cnccn1 | inactive: > 30 µM |
| COc1ccc(/C=C2\SC(=Nc3ccccc3OC)NC2=O)cc1 | inactive: > 30 µM |
| CCN(Cc1ccccc1)S(=O)(=O)c1ccc2c(c1)NC(=O)CC(=O)N2 | inactive: > 30 µM |
| COc1ccc(-c2c(N)nnc3c2[nH]c2ccccc23)cc1OC | inactive: > 30 µM |
| O=C(CSc1nnc(CNC(=O)c2c(F)cccc2F)o1)NCc1ccc(F)cc1 | inactive: > 30 µM |
| CC(C)OCCCNC(=O)c1ccc(CS(=O)(=O)Cc2ccccc2F)o1 | inactive: > 30 µM |
| Cc1cccc(Nc2nc(N3CCN(C)CC3)nc(N)c2[N+](=O)[O-])c1 | inactive: > 30 µM |
| Cc1cc(C)c(C)c(S(=O)(=O)Nc2ccccc2C(=O)NCCCn2ccnc2)c1C | inactive: > 30 µM |
| Cc1ccsc1C1NC(=O)c2c(sc3c2CCCC3)N1 (configuration not stated) | inactive: > 30 µM |
| COc1ccc(-c2nn(-c3ccccc3)cc2/C=N/NS(=O)(=O)c2ccccc2)cc1 | inactive: > 30 µM |
| CC(C)Nc1nc(-c2ccncc2)nc(-c2ccc(Cl)cc2)c1C#N | inactive: > 30 µM |
| COc1ccc(CN(CC(=O)NCCc2ccccc2)C(=O)CCC(=O)Nc2ccccn2)cc1 | inactive: > 30 µM |
| CN(C)Cc1c(O)ccc2c3c(c(=O)oc12)CCCCC3 | inactive: > 30 µM |
| COC(=O)c1ccc(O)cc1 | inactive: > 30 µM |
| COc1ccc(N(C(=O)c2ccncc2)S(=O)(=O)c2cccc([N+](=O)[O-])c2)cc1 | inactive: > 30 µM |
| CC[n+]1c(/C=C/Nc2ccccc2)sc2ccccc21 | inactive: > 30 µM |

| Structure (SMILES) | EC50 |
| --- | --- |
| CC1(C)CC(CCNC(=O)CCl)(c2ccccc2)CCO1 (configuration not stated) | inactive: > 30 µM |
| Oc1[nH]c2ccccc2c1C=Nc1ccc2c(c1)OCO2 | inactive: > 30 µM |
| Nc1nonc1-n1nnc(C(=O)N/N=C/c2cccc(O)c2)c1CN1CCCC1 | inactive: > 30 µM |
| COC(=O)CSc1ccc2nnc(-c3ccc(OC)c(OC)c3)n2n1 | inactive: > 30 µM |
| O=C(OCCN1CCCCC1)c1ccc(O)cc1 | inactive: > 30 µM |
| O=C(COc1ccccc1)Nc1ccc2c(c1)C(=O)N(CC1CCCO1)C2=O (configuration not stated) | inactive: > 30 µM |
| O=C(NNC(=O)C1[C@H]2CCCC[C@@H]12)c1ccc(=O)oc1 (some centres not stated) | inactive: > 30 µM |
| COC(=O)c1ccc(NC(C(=O)OC)C(C)C)c([N+](=O)[O-])c1 (configuration not stated) | inactive: > 30 µM |
| CN1CCN(CCC2Oc3cc([N+](=O)[O-])ccc3NC2=O)CC1 (configuration not stated) | inactive: > 30 µM |
| CCCCc1cc(=O)oc2cc(OCC(=O)N(CC)CC)ccc12 | inactive: > 30 µM |
| CC(C)CCNc1nc(N)c([N+](=O)[O-])c(NCC2CCCO2)n1 (configuration not stated) | inactive: > 30 µM |
| Cc1cc(N2CCN(C(=O)c3ccco3)CC2)c2ccccc2n1 | inactive: > 30 µM |
| COC(CNc1nc(SC)nc2sc3c(c12)CCN(C)C3)OC | inactive: > 30 µM |
| Cc1nc(C)c(-c2csc(Nc3ccc(C(=O)O)c(O)c3)n2)s1 | inactive: > 30 µM |
| Cc1cc(NC(=O)CSc2nc(-c3ccccc3)c(C#N)c(=O)[nH]2)no1 | inactive: > 30 µM |
| COC(=O)C1=C(C)N(CCCC(=O)O)C(=O)NC1c1ccc([N+](=O)[O-])cc1 (configuration not stated) | inactive: > 30 µM |
| CCN(CC)Cc1c(C(=O)N/N=C/c2ccncc2)nnn1-c1nonc1N | inactive: > 30 µM |
| O=C1CC(c2ccc(O)cc2)Oc2cc(O)ccc21 (configuration not stated) | inactive: > 30 µM |
| CCCCc1cc(=O)oc2cc(OS(C)(=O)=O)ccc12 | inactive: > 30 µM |
| COc1ccc2occ(C(=O)c3cccs3)c2c1 | inactive: > 30 µM |
| CCOC(=O)C1CCN(CC(O)COC(CC)c2ccccc2)CC1 (configuration not stated) | inactive: > 30 µM |
| COc1cccc(C(=O)N/N=C/c2ccc(Oc3ccc([N+](=O)[O-])cn3)c(OC)c2)c1 | inactive: > 30 µM |
| O=C(Nc1ccc(N2CCN(Cc3ccccc3)CC2)cc1)c1ccccc1[N+](=O)[O-] | inactive: > 30 µM |

| Structure (SMILES) | EC50 |
| --- | --- |
| CC(CC(=O)N1CCN(c2cccc(Cl)c2)CC1)S(=O)(=O)c1ccc2c(c1)NC(=O)CO2 (configuration not stated) | inactive: > 30 µM |
| O=C1N/C(=N/S(=O)(=O)Cc2ccccc2)S/C1=C/c1ccc2c(c1)OCO2 | inactive: > 30 µM |
| CC(C)C(=O)NC(=S)Nc1ccc(S(=O)(=O)N2CCCC2)cc1 | inactive: > 30 µM |
| CN(C)Cc1c(O)ccc2occ(C(=O)c3ccccc3)c12 | inactive: > 30 µM |
| O=[N+]([O-])c1ccccc1Oc1ccc(Cl)c2cccnc12 | inactive: > 30 µM |
| O=C1CC(c2ccc(O)c(O)c2)Oc2cc(O)cc(O)c21 (configuration not stated) | inactive: > 30 µM |
| Nc1nc(Nc2ccccc2)nc(NC2CCCCC2)c1[N+](=O)[O-] | inactive: > 30 µM |
| CN(c1ncnc(N)c1[N+](=O)[O-])C1CCS(=O)(=O)C1 (configuration not stated) | inactive: > 30 µM |
| COc1ccc(-c2nn(-c3ccccc3)cc2/C=N/Nc2ccccn2)cc1OC | inactive: > 30 µM |
| COCCCNC(=O)c1cccn2c(=O)c3cc4ccccc4cc3nc12 | inactive: > 30 µM |
| COC(=O)CSc1nnc(-c2ccncc2)o1 | inactive: > 30 µM |
| O=C(NC1CCCCCC1)C1CCCN(S(=O)(=O)c2cccs2)C1 (configuration not stated) | inactive: > 30 µM |
| COc1cccc(C(=O)Nc2nc3ccccc3s2)c1 | inactive: > 30 µM |
| COc1cccc(Nc2nc(-c3ccccc3)nc3ccccc23)c1 | inactive: > 30 µM |
| COc1c(CC=C(C)C)cc(C2CC(=O)c3c(O)cc(O)cc3O2)c(CC=C(C)C)c1O (configuration not stated) | inactive: > 30 µM |
| Cc1ccc(CSc2nnc(-c3ccncc3)o2)c(C)c1 | inactive: > 30 µM |
| Cc1ccc(C)c(Nc2nc(-c3ccncc3)nc3ccccc23)c1 | inactive: > 30 µM |
| O=C1C2C3C=CC(C3)C2C(=O)N1CCCCCCN1C(=O)C2C3C=CC(C3)C2C1=O (configuration not stated) | inactive: > 30 µM |
| OC(CNc1nc(-c2cccnc2)nc2ccccc12)c1ccccc1 (configuration not stated) | inactive: > 30 µM |
| CCn1c(SCC(=O)Nc2ccc(NC(C)=O)cc2)nnc1C1CC1 | inactive: > 30 µM |
| COc1ccc(CNC(=O)CN(Cc2ccco2)C(=O)CCC(=O)Nc2ccccn2)cc1 | inactive: > 30 µM |
| CCCC(NC(=O)Cc1c(C)c2c(cc(C)c3c(C)coc32)oc1=O)C(=O)O (configuration not stated) | inactive: > 30 µM |
| COc1ccc(OC)c(-c2cc(-c3cccnc3)nc(N)c2C#N)c1 | inactive: > 30 µM |

Exported with bars between the fields: entries from further up
Structure (SMILES) | EC50
CCCCc1cc(=O)oc2cc(OS(C)(=O)=O)ccc12 | inactive: > 30 µM
COc1ccc2occ(C(=O)c3cccs3)c2c1 | inactive: > 30 µM
CCOC(=O)C1CCN(CC(O)COC(CC)c2ccccc2)CC1 (configuration not stated) | inactive: > 30 µM
COc1cccc(C(=O)N/N=C/c2ccc(Oc3ccc([N+](=O)[O-])cn3)c(OC)c2)c1 | inactive: > 30 µM
O=C(Nc1ccc(N2CCN(Cc3ccccc3)CC2)cc1)c1ccccc1[N+](=O)[O-] | inactive: > 30 µM
CC(CC(=O)N1CCN(c2cccc(Cl)c2)CC1)S(=O)(=O)c1ccc2c(c1)NC(=O)CO2 (configuration not stated) | inactive: > 30 µM
O=C1N/C(=N/S(=O)(=O)Cc2ccccc2)S/C1=C/c1ccc2c(c1)OCO2 | inactive: > 30 µM
CC(C)C(=O)NC(=S)Nc1ccc(S(=O)(=O)N2CCCC2)cc1 | inactive: > 30 µM
O=[N+]([O-])c1ccccc1Oc1ccc(Cl)c2cccnc12 | inactive: > 30 µM
O=C1CC(c2ccc(O)c(O)c2)Oc2cc(O)cc(O)c21 (configuration not stated) | inactive: > 30 µM
Nc1nc(Nc2ccccc2)nc(NC2CCCCC2)c1[N+](=O)[O-] | inactive: > 30 µM
CN(c1ncnc(N)c1[N+](=O)[O-])C1CCS(=O)(=O)C1 (configuration not stated) | inactive: > 30 µM
COCCCNC(=O)c1cccn2c(=O)c3cc4ccccc4cc3nc12 | inactive: > 30 µM
COC(=O)CSc1nnc(-c2ccncc2)o1 | inactive: > 30 µM
O=C(NC1CCCCCC1)C1CCCN(S(=O)(=O)c2cccs2)C1 (configuration not stated) | inactive: > 30 µM
COc1cccc(C(=O)Nc2nc3ccccc3s2)c1 | inactive: > 30 µM
COc1cccc(Nc2nc(-c3ccccc3)nc3ccccc23)c1 | inactive: > 30 µM
COc1c(CC=C(C)C)cc(C2CC(=O)c3c(O)cc(O)cc3O2)c(CC=C(C)C)c1O (configuration not stated) | inactive: > 30 µM
Cc1ccc(CSc2nnc(-c3ccncc3)o2)c(C)c1 | inactive: > 30 µM
Cc1ccc(C)c(Nc2nc(-c3ccncc3)nc3ccccc23)c1 | inactive: > 30 µM
O=C1C2C3C=CC(C3)C2C(=O)N1CCCCCCN1C(=O)C2C3C=CC(C3)C2C1=O (configuration not stated) | inactive: > 30 µM
OC(CNc1nc(-c2cccnc2)nc2ccccc12)c1ccccc1 (configuration not stated) | inactive: > 30 µM
CCn1c(SCC(=O)Nc2ccc(NC(C)=O)cc2)nnc1C1CC1 | inactive: > 30 µM
COc1ccc(CNC(=O)CN(Cc2ccco2)C(=O)CCC(=O)Nc2ccccn2)cc1 | inactive: > 30 µM
CCCC(NC(=O)Cc1c(C)c2c(cc(C)c3c(C)coc32)oc1=O)C(=O)O (configuration not stated) | inactive: > 30 µM
COc1ccc(OC)c(-c2cc(-c3cccnc3)nc(N)c2C#N)c1 | inactive: > 30 µM

(next part)

| Structure (SMILES) | EC50 |
| --- | --- |
| CC(C(=O)NCC1CCCO1)n1cc([N+](=O)[O-])cn1 (configuration not stated) | inactive: > 30 µM |
| CCN1CCc2c(C#N)c(N3CCCCC3)nc(N3CCOCC3)c2C1 | inactive: > 30 µM |
| Cc1[nH]nc2c1C(c1ccc(F)cc1)C1=C(CC(C)(C)CC1=O)N2 (configuration not stated) | inactive: > 30 µM |
| O=[N+]([O-])c1ccccc1S(=O)(=O)N1CCc2ccccc2C1 | inactive: > 30 µM |
| CC(=O)c1cccc(Nc2nc(-c3ccccc3)nc3ccccc23)c1 | inactive: > 30 µM |
| Cc1cccc(-c2nnc(SCc3ccccc3)o2)c1 | inactive: > 30 µM |
| CCCOc1ccc(-c2c(C(=O)N/N=C(\C)c3ccco3)nnn2-c2nonc2N)cc1 | inactive: > 30 µM |
| O=C(Cn1c2ccccc2c(=O)c2ccccc21)Nc1ccccc1F | inactive: > 30 µM |
| O=C(Nc1ccccc1C(=O)N1CCOCC1)C1CCCO1 (configuration not stated) | inactive: > 30 µM |
| CC(C(=O)Nc1cccnc1)n1cc([N+](=O)[O-])cn1 (configuration not stated) | inactive: > 30 µM |
| CCC(O)CNc1nc(SC)nc2sc3c(c12)CCN(C)C3 (configuration not stated) | inactive: > 30 µM |
| C/C(CC(=O)NCc1ccccc1)=N\NC(=O)c1cnccn1 | inactive: > 30 µM |
| CC1Cc2cc(-c3csc(NC(=O)Cc4ccccc4)n3)ccc2N1S(C)(=O)=O (configuration not stated) | inactive: > 30 µM |
| CCOC(=O)c1sc(NC(=O)CSc2nnc(C(C)C)n2C)nc1C | inactive: > 30 µM |
| O=C(CSCCc1ccccn1)Nc1ccc(Br)cn1 | inactive: > 30 µM |
| Cc1c(C(=O)OCCOc2ccccc2)[nH]c2c1C(=O)CCC2 | inactive: > 30 µM |
| Cc1ccc(S(=O)(=O)NNC(=O)c2cccc(O)c2)cc1 | inactive: > 30 µM |
| N#Cc1c(-c2ccc(F)cc2)nc(-c2ccccc2)[nH]c1=O | inactive: > 30 µM |
| COCCOC(=O)C(C#N)c1nc2ccccc2nc1N1CCN(Cc2ccccc2)CC1 (configuration not stated) | inactive: > 30 µM |
| Nc1nc(NCc2ccco2)nc(NC2CCCCC2)c1[N+](=O)[O-] | inactive: > 30 µM |
| Cc1ccc2cc(NC(=O)c3cccc(F)c3)ccc2n1 | inactive: > 30 µM |
| CCOc1ccc(/C=C2\CCCc3c2nc2ccccc2c3C(=O)O)cc1OC | inactive: > 30 µM |
| CCOC(=O)c1c(C)[nH]c(C)c1S(=O)(=O)N(C)CC(=O)Nc1ccccc1 | inactive: > 30 µM |
